{"source": "PubChem BioAssay AID602196 (INSERM, 2012)", "assay": "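Modifiers of cisplatin sensitivity in A549 cells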", "cell system": "human A549 lung cancer cells", "knock-down reagent": "siRNA pair against human genes", "time to read-out": "48 h transfection before cisplatin; time from cisplatin to read-out not stated", "challenge": "cisplatin at a dose killing half of control-siRNA cells; exact dose and duration not given", "measurement": "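Cisplatin cell death as a shift from the 50% death seen with control siRNA; siRNAs toxic or growth-blocking alone scored 0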", "reading the numbers": "two-siRNA summed score (-2 to +2): higher = both siRNAs protect from cisplatin killing; -2 means both sensitise; mean protection from cisplatin (shift in death): higher = protection from cisplatin killing", "call rule": "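siRNAs harmful alone (LDH or WST-1) get 0; others get +1 for less and -1 for more cisplatin killing; genes are active when the two siRNAs give the same sign, summing to ±2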", "meaning of the calls": "active = both siRNAs shift cisplatin killing the same way; inactive = no consistent shift, or siRNA harmful alone", "note": "Shown is a random part of about 23,000 deposited reagents. Over the whole deposit, 455 (2%) got an active call. 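Active includes both protection and sensitisation; some change values fall well beyond the stated -50 to +50 range.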 The numbers tell different reagents against one gene apart. Further read-outs or replicates are left out here. Not stated in the record: the amount of reagent."}
{"gene": "LOC286408", "reagent no.": 1, "two-siRNA summed score (-2 to +2)": 1, "mean protection from cisplatin (shift in death) (%)": 14.7, "Outcome": "inactive"}
{"gene": "LOC442329", "reagent no.": 1, "two-siRNA summed score (-2 to +2)": 1, "mean protection from cisplatin (shift in death) (%)": 14.1, "Outcome": "inactive"}
{"gene": "FNDC4", "reagent no.": 1, "two-siRNA summed score (-2 to +2)": 0, "mean protection from cisplatin (shift in death) (%)": 5.7, "Outcome": "inactive"}
{"gene": "SCRN3", "reagent no.": 1, "two-siRNA summed score (-2 to +2)": 0, "mean protection from cisplatin (shift in death) (%)": 1.9, "Outcome": "inactive"}
{"gene": "CENATAC", "reagent no.": 1, "two-siRNA summed score (-2 to +2)": 2, "mean protection from cisplatin (shift in death) (%)": 12.6, "Outcome": "active"}
{"gene": "TRAK1", "reagent no.": 1, "two-siRNA summed score (-2 to +2)": 0, "mean protection from cisplatin (shift in death) (%)": 2.7, "Outcome": "inactive"}
{"gene": "TCF20", "reagent no.": 1, "two-siRNA summed score (-2 to +2)": 0, "mean protection from cisplatin (shift in death) (%)": 3.6, "Outcome": "inactive"}
{"gene": "LOC401082", "reagent no.": 1, "two-siRNA summed score (-2 to +2)": 0, "mean protection from cisplatin (shift in death) (%)": 7.2, "Outcome": "inactive"}
{"gene": "AP4B1", "reagent no.": 1, "two-siRNA summed score (-2 to +2)": 0, "mean protection from cisplatin (shift in death) (%)": 6.3, "Outcome": "inactive"}
{"gene": "P2RY6", "reagent no.": 1, "two-siRNA summed score (-2 to +2)": 0, "mean protection from cisplatin (shift in death) (%)": -3.4, "Outcome": "inactive"}
{"gene": "SNX29", "reagent no.": 1, "two-siRNA summed score (-2 to +2)": 0, "mean protection from cisplatin (shift in death) (%)": 3.7, "Outcome": "inactive"}
{"gene": "SNX29", "reagent no.": 2, "two-siRNA summed score (-2 to +2)": 0, "mean protection from cisplatin (shift in death) (%)": 6.3, "Outcome": "inactive"}

Called active, of those listed so far:
{"gene": "CENATAC", "reagent no.": 1, "two-siRNA summed score (-2 to +2)": 2, "mean protection from cisplatin (shift in death) (%)": 12.6, "Outcome": "active"}
